No constants are given. Whether binding was seen depends on the method and setting. Some entries that bind do so weakly or less than the wild type.
Target: VASH1^44–315 (human) (UniProt Q7L8A9)
Assay: crystal structure; co-expressed and co-purified VASH1 44-315 / SVBP 1-66 heterodimer; 2.28 Å, Pt-SAD phasing; one complex in the asymmetric unit; both purified

By UniProt entry, the sequences of proteins in these tests, tags left out. Residues count along the entry.
UniProt Q7L8A9, residues 44-315: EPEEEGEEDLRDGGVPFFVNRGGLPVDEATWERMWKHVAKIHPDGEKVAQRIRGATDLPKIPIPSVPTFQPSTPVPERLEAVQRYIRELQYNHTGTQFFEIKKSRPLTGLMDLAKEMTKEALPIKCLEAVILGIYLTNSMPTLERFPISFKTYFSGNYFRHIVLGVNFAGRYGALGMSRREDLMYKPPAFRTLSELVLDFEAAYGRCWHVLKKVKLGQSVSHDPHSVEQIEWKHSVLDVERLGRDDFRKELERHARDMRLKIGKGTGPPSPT

- binding: binds
B1: SVBP^1–66 (protein, UniProt Q8N300 1-66)
chain: MDPPARKEKTKVKESVSRVEKAKQKSAQQELKQRQRAEIYALNRVMTELEQQQFDEFCKQMQPPGE

Reference: publication PMC6937246
